The source of these data is publication PMC4588589.

By UniProt entry, the sequences of proteins in these tests, tags left out. Residues count along the entry.
UniProt P16092, residues 22-822: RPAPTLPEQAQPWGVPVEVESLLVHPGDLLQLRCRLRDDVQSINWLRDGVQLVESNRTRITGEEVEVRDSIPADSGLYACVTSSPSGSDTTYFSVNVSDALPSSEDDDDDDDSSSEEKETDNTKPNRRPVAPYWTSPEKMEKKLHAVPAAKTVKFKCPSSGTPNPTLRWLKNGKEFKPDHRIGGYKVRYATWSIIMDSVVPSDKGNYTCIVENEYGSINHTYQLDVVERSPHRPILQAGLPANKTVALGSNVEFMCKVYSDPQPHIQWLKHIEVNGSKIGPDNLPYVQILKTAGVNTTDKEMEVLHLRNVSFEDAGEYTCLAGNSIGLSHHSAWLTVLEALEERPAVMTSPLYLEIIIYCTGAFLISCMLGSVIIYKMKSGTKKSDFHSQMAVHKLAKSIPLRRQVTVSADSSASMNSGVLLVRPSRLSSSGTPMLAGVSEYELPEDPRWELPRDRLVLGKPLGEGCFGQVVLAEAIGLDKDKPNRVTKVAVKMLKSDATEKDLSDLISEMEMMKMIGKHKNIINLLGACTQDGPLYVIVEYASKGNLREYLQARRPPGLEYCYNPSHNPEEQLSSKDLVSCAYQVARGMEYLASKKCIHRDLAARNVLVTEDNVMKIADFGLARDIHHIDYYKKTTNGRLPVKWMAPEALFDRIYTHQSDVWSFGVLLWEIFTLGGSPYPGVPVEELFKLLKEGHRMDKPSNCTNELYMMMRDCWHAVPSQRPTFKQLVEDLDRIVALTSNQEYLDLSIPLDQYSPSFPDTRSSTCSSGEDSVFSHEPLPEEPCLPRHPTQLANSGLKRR
UniProt P15116, residues 160-906: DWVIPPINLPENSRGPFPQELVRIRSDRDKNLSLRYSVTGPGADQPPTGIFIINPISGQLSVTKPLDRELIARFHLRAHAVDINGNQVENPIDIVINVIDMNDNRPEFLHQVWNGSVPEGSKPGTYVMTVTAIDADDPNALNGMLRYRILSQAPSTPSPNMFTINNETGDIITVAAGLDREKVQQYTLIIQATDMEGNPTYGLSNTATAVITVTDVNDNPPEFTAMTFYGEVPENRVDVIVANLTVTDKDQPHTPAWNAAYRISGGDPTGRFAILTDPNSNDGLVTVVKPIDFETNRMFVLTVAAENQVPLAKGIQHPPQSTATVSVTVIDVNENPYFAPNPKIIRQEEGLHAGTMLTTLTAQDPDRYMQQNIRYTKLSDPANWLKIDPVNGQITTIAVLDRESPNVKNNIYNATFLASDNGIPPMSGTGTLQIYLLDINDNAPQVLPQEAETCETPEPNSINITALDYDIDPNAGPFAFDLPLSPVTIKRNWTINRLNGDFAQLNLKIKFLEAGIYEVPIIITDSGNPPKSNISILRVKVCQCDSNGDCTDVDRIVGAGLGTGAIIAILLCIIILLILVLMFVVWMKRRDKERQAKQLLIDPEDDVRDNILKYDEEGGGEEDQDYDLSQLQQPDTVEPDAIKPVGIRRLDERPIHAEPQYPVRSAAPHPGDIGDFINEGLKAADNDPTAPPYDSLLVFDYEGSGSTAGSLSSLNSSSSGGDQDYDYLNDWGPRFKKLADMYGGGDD

Results are given in words; binding and its absence hold for the method and conditions named. Binding seen in cells or lysates may run through a third protein. Some binding calls cover weakened binding; strength is not graded here.

In the assay the target is FGFR1 (mouse (endogenous in mEpiSCs)) (UniProt P16092). Briefly: co-IP; lysates of wild-type mEpiSCs or Cdh1-mEpiSCs in IP extraction buffer (25 mM Tris-HCl pH7.5, 100 m NaCl, 0.5% Triton X-100); anti-FGFR1 antibody with Dynabeads Protein G in 0.02% tween TBS; eluted in SDS buffer, Western blot. For orientation: A western blot detects proteins with antibodies after separation by electrophoresis.

As to “Cadherin 2 (Cdh2) (from UniProt P15116 160-906)”, the binding result was “binds”.
